Experimental data reported in PMC12404741.
No constants are given. Whether binding was seen depends on the method and setting. Binding seen in cells or lysates may run through a third protein. A yes stands for co-enrichment or nearness to the bait. Other partners may have been found.

By UniProt entry, the sequences of proteins in these tests, tags left out.
UniProt O00270: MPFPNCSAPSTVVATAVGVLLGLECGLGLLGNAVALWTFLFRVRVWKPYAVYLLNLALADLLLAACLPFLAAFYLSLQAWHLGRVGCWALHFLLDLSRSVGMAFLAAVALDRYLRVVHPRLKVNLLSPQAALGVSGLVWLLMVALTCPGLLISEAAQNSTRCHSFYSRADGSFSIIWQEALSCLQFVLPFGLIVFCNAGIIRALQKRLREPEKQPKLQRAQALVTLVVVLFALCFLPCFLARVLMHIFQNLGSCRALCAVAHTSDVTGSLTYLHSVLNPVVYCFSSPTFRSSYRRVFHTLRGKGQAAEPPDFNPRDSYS
UniProt P62873: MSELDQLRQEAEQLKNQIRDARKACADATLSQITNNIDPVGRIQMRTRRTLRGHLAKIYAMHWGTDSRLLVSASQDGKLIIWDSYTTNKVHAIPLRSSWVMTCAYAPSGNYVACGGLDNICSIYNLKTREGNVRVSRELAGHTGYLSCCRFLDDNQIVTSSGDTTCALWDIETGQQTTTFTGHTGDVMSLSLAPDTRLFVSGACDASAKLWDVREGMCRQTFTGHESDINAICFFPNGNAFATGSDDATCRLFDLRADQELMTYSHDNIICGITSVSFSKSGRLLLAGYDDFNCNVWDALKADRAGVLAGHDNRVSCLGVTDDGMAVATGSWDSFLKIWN
UniProt P08754: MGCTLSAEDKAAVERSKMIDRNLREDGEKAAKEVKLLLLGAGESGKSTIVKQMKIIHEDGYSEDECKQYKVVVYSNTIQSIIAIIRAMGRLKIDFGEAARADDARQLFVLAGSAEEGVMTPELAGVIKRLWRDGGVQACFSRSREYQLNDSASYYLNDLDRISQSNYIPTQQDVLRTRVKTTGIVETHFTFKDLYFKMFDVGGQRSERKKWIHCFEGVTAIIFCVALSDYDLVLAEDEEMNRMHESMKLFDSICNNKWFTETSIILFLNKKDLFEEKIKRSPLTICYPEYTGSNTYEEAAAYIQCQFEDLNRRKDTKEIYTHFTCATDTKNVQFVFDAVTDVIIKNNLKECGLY
UniProt P62879: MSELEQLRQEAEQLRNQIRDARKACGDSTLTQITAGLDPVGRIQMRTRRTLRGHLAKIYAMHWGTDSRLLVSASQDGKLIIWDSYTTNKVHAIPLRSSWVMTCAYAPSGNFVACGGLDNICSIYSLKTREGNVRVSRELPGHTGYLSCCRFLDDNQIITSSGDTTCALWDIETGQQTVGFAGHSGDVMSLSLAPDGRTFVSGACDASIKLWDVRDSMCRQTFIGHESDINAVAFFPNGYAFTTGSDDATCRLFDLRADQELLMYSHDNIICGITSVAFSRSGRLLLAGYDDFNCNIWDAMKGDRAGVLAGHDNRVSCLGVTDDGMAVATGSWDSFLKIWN
UniProt P63092: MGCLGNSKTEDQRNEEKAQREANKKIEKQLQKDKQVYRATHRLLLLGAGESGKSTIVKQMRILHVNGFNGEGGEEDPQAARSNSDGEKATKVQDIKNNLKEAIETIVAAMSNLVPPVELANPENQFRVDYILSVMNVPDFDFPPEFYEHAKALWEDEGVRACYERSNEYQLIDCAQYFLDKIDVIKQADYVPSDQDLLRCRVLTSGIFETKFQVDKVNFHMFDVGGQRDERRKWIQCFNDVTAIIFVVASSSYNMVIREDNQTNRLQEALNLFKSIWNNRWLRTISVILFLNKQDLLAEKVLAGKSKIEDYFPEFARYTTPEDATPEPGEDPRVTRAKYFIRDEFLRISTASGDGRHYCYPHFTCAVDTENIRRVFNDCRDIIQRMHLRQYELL

B1: STT3A (enzyme, UniProt P46977 1-705)
chain: MTKFGFLRLSYEKQDTLLKLLILSMAAVLSFSTRLFAVLRFESVIHEFDPYFNYRTTRFLAEEGFYKFHNWFDDRAWYPLGRIIGGTIYPGLMITSAAIYHVLHFFHITIDIRNVCVFLAPLFSSFTTIVTYHLTKELKDAGAGLLAAAMIAVVPGYISRSVAGSYDNEGIAIFCMLLTYYMWIKAVKTGSICWAAKCALAYFYMVSSWGGYVFLINLIPLHVLVLMLTGRFSHRIYVAYCTVYCLGTILSMQISFVGFQPVLSSEHMAAFGVFGLCQIHAFVDYLRSKLNPQQFEVLFRSVISLVGFVLLTVGALLMLTGKISPWTGRFYSLLDPSYAKNNIPIIASVSEHQPTTWSSYYFDLQLLVFMFPVGLYYCFSNLSDARIFIIMYGVTSMYFSAVMVRLMLVLAPVMCILSGIGVSQVLSTYMKNLDISRPDKKSKKQQDSTYPIKNEVASGMILVMAFFLITYTFHSTWVTSEAYSSPSIVLSARGGDGSRIIFDDFREAYYWLRHNTPEDAKVMSWWDYGYQITAMANRTILVDNNTWNNTHISRVGQAMASTEEKAYEIMRELDVSYVLVIFGGLTGYSSDDINKFLWMVRIGGSTDTGKHIKENDYYTPTGEFRVDREGSPVLLNCLMYKMCYYRFGQVYTEAKRPPGFDRVRNAEIGNKDFELDVLEEAYTTEHWLVRIYKVKDLDNRGLSRT
B2: STT3B (enzyme, UniProt Q8TCJ2 1-826)
chain: MAEPSAPESKHKSSLNSSPWSGLMALGNSRHGHHGPGAQCAHKAAGGAAPPKPAPAGLSGGLSQPAGWQSLLSFTILFLAWLAGFSSRLFAVIRFESIIHEFDPWFNYRSTHHLASHGFYEFLNWFDERAWYPLGRIVGGTVYPGLMITAGLIHWILNTLNITVHIRDVCVFLAPTFSGLTSISTFLLTRELWNQGAGLLAACFIAIVPGYISRSVAGSFDNEGIAIFALQFTYYLWVKSVKTGSVFWTMCCCLSYFYMVSAWGGYVFIINLIPLHVFVLLLMQRYSKRVYIAYSTFYIVGLILSMQIPFVGFQPIRTSEHMAAAGVFALLQAYAFLQYLRDRLTKQEFQTLFFLGVSLAAGAVFLSVIYLTYTGYIAPWSGRFYSLWDTGYAKIHIPIIASVSEHQPTTWVSFFFDLHILVCTFPAGLWFCIKNINDERVFVALYAISAVYFAGVMVRLMLTLTPVVCMLSAIAFSNVFEHYLGDDMKRENPPVEDSSDEDDKRNQGNLYDKAGKVRKHATEQEKTEEGLGPNIKSIVTMLMLMLLMMFAVHCTWVTSNAYSSPSVVLASYNHDGTRNILDDFREAYFWLRQNTDEHARVMSWWDYGYQIAGMANRTTLVDNNTWNNSHIALVGKAMSSNETAAYKIMRTLDVDYVLVIFGGVIGYSGDDINKFLWMVRIAEGEHPKDIRESDYFTPQGEFRVDKAGSPTLLNCLMYKMSYYRFGEMQLDFRTPPGFDRTRNAEIGNKDIKFKHLEEAFTSEHWLVRIYKVKAPDNRETLDHKPRVTNIFPKQKYLSKKTTKRKRGYIKNKLVFKKGKKISKKTV

Each molecule was assayed against Flag-tagged GPR31 (interactome bait) (human) (UniProt O00270) (assay: affinity purification with mass spectrometry; lysates of human hepatocyte cells with or without overexpression of Flag-tagged GPR31, immunoprecipitated with an anti-Flag antibody, LC-MS/MS; proteins with more than 2 unique peptides included).
“Gβ1 (hit of the GPR31 interactome) (from UniProt P62873 1-340)” was tested, and the binding was “binds”. For “Gαi3 (hit of the GPR31 interactome) (from UniProt P08754 1-354)”, the binding was “binds”. “Gβ2 (hit of the GPR31 interactome) (from UniProt P62879 1-340)” was tested, and the binding was “binds”. “Gαs (hit of the GPR31 interactome) (from UniProt P63092 1-394)” was tested, and the binding was “binds”.

Molecular target: Flag-tagged GPR31 (interactome bait) (human) (UniProt O00270)
Assay: as above
Remark: another data set of the same source
With B1 the binding was “binds”. With B2 the binding was “binds”.
